## Percent effect of library compounds

Chains of the proteins cited; added tags and fusions are not shown. Residues count along the entry.
UniProt Q4DA54, 1-478: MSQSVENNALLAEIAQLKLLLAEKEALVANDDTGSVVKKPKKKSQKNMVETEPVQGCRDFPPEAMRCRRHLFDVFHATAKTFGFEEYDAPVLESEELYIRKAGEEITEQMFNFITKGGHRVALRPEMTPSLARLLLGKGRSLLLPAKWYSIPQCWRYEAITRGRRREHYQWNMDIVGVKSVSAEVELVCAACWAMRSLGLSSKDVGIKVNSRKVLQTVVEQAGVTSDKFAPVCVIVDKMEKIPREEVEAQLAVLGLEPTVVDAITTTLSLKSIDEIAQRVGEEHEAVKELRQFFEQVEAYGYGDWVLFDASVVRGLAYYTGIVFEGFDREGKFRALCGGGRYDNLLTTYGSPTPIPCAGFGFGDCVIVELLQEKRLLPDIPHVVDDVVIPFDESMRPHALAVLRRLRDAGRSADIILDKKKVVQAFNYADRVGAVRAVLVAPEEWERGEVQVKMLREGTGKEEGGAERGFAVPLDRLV
UniProt I6X8D2, whole entry: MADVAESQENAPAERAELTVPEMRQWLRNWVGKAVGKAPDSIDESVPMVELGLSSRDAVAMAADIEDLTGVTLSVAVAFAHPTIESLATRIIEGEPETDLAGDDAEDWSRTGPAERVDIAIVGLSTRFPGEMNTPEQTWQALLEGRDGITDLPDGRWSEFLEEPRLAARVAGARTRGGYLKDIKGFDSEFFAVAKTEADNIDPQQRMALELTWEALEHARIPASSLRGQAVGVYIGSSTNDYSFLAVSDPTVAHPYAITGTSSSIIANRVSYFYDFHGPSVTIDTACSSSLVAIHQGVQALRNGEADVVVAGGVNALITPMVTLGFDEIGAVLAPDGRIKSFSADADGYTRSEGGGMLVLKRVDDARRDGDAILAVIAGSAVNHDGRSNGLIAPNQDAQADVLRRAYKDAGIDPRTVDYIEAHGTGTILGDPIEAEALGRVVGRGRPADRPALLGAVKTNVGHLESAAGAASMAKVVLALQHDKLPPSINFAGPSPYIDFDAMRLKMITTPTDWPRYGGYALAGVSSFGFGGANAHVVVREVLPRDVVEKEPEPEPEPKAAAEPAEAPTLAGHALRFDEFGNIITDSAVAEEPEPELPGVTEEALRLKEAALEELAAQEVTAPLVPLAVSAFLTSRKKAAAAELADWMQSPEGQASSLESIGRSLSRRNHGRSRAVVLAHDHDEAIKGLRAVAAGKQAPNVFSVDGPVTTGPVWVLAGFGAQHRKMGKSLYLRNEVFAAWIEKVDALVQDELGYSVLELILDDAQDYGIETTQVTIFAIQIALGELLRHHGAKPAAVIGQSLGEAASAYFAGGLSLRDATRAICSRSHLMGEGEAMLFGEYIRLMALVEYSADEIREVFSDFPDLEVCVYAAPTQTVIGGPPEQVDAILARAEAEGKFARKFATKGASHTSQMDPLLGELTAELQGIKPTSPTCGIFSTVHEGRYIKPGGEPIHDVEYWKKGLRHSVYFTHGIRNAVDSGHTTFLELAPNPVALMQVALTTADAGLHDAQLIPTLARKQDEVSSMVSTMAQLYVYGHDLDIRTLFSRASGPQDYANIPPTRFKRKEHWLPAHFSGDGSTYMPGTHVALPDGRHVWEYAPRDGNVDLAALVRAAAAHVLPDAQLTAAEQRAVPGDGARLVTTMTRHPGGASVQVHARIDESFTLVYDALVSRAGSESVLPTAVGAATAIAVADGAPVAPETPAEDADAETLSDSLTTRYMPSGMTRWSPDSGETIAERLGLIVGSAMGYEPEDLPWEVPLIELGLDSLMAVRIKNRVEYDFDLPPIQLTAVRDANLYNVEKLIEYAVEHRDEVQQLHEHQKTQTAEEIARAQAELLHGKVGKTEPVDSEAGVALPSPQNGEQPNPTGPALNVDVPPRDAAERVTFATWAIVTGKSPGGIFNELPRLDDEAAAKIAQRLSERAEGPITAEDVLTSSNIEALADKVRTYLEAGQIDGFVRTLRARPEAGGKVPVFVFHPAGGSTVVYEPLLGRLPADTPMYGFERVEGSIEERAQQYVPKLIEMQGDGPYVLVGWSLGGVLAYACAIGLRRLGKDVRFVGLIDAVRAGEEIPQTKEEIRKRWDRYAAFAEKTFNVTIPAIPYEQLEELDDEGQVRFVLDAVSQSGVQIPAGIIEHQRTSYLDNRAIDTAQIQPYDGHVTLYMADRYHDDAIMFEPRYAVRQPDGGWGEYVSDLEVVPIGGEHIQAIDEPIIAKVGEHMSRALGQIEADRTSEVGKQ
UniProt P9WNZ1, whole entry: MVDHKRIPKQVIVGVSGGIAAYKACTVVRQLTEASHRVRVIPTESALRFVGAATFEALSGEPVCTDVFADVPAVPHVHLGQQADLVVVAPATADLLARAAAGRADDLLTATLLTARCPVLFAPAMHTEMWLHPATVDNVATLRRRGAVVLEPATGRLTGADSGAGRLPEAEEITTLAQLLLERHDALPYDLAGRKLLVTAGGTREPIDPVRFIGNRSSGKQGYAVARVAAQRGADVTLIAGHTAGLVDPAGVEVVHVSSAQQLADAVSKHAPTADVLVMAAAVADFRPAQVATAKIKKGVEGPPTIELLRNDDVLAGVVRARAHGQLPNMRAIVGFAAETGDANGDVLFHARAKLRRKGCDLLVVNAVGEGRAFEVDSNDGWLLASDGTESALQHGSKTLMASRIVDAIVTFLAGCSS
UniProt Q8IDJ8, 1-583: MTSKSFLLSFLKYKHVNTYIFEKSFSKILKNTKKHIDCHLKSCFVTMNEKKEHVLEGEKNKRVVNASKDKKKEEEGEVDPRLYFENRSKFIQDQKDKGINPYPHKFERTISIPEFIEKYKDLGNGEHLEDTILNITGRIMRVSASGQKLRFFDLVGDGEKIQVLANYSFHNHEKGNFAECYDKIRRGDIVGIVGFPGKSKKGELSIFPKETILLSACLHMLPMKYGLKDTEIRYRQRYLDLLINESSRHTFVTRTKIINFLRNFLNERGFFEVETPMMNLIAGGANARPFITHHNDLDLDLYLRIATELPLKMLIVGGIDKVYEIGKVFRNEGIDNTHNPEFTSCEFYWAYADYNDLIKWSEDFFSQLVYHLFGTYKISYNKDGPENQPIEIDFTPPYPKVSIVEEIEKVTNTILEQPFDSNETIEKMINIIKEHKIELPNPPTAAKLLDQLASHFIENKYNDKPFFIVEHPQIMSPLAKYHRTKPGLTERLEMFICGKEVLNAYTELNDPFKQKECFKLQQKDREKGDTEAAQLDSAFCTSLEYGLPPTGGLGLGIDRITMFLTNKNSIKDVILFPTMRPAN
UniProt P9WFT3, whole entry: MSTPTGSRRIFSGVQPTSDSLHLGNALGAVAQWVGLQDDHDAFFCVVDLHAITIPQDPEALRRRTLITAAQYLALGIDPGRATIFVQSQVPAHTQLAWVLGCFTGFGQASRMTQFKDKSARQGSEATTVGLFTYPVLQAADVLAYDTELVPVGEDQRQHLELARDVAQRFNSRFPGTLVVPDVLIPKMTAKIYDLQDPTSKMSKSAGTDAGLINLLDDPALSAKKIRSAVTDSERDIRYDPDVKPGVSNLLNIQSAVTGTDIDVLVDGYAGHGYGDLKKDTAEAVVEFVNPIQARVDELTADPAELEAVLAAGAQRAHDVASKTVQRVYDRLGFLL

The values are deposited in ChEMBL (CHEMBL3988442, “University of Dundee, Small-Polar-MMV Screening Library” (2021)).

TcHisRS: 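Enzyme assay of histidyl-tRNA synthetase; the read-out is not stated. Target: Histidine-tRNA ligase, Trypanosoma cruzi CL Brener (UniProt Q4DA54). Compounds at 30 µM. The record gives no direction; compounds that gave an IC50 in retests scored well above the rest, so higher reads as stronger inhibition. Of about 69,000 compounds tested this way, about 31 (0.045%) reached 50% or more in at least one test.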
Pks13 thioesterase: 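Enzyme assay of the thioesterase domain of polyketide synthase 13; the read-out is not stated. Target: Polyketide synthase Pks13, Mycobacterium tuberculosis (UniProt I6X8D2). Concentration: 30 µM. Higher reads as stronger inhibition (inferred from which compounds were picked for retests). Size under these conditions: about 67,000 compounds, about 300 of them at 50% or above in at least one test.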
CoaBC: 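Enzyme assay of CoaBC with a phosphate dye (Biomol Green) read at 650 nm. Target: Coenzyme A biosynthesis protein CoaBC, Mycobacterium tuberculosis (UniProt P9WNZ1). Tested at 30 µM. Higher reads as stronger inhibition, judged from the few compounds that gave an IC50. Most strong results did not repeat in a second test. Size under these conditions: about 67,000 compounds, about 40 of them at 50% or above in at least one test.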
Leishmania in macrophages: 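Cell assay of Leishmania donovani living inside macrophages; the read-out is not stated. Compounds at 30 µM. Direction is inferred from retests: higher values go with stronger inhibition. Of about 69,000 compounds tested this way, about 1,000 (1.5%) reached 50% or more in at least one test.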
PfKRS1: 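Enzyme assay of the cytosolic lysyl-tRNA synthetase in 384-well plates, read by luminescence. Target: Lysine-tRNA ligase, Plasmodium falciparum 3D7 (UniProt Q8IDJ8). Tested at 30 µM. Higher reads as stronger inhibition, judged from the few compounds that gave an IC50. About 69,000 compounds were tested under these conditions; 0.071% (about 49) showed 50% or more at least once.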
MtTrpRS: 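Tryptophan-tRNA ligase, Mycobacterium tuberculosis (UniProt P9WFT3). Enzyme assay of tryptophanyl-tRNA synthetase; the read-out is not stated. Compounds at 10 µM. Higher most likely means stronger inhibition; the record gives no direction and few retests gave an IC50. Of about 65,000 compounds tested this way, about 64 (0.098%) reached 50% or more in at least one test.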

Values are the deposited “Percent Effect”, in %. The record does not define 0% and 100%; most values in the screen are far below 50% and negative numbers occur (in some assays of this library far below -100). Compounds were drawn at random from those tested, without regard to their results. Two or more numbers in one place are separate tests of the same structure; such repeats can differ widely.

* [H][C@]12CC[C@]([H])(CN(c3ncccn3)C1)N(C(=O)Cn1ccc(=O)cc1)C2 : Leishmania in macrophages: 24%
* CCN(CC1CCOC1)C(=O)c1ccc(COc2ccccc2C#N)o1 (stereo unspecified) : TcHisRS: 2.717%; Pks13 thioesterase: -22.15%; CoaBC: -2.479%; Leishmania in macrophages: 20.28%; PfKRS1: -1.391%; MtTrpRS: -4.739%
* CN1CCOC(CN(C(=O)CCc2cnn(C)c2)c2nccs2)C1 (stereo unspecified) : TcHisRS: 4.07%; Pks13 thioesterase: 8.053%; CoaBC: 14.47%; Leishmania in macrophages: 18.09%; PfKRS1: 1.478%; MtTrpRS: -5.54%
* COc1ccc(CNC(=O)NCC(O)(c2cccs2)C2CC2)cc1 (stereo unspecified) : TcHisRS: -1.031%; Pks13 thioesterase: -15.01%; CoaBC: 2.326%; Leishmania in macrophages: 20.36% & 14.48%; PfKRS1: 11.62%; MtTrpRS: -0.228%
* [H][C@@]12CN(S(=O)(=O)c3ccccc3)C[C@]1([H])OCC(=O)N2CCOC : Leishmania in macrophages: 15.81%
* N[C@H]1CCCN(S(=O)(=O)c2ccc(C(=O)NCC(F)F)cc2)C1 : TcHisRS: -0.8%; Pks13 thioesterase: -13.64%; CoaBC: 2.76%; Leishmania in macrophages: 1.782%; PfKRS1: -3.756%; MtTrpRS: -4.439%
* Cn1cc(N2CCCC(SCc3ccco3)C2=O)cn1 (stereo unspecified) : TcHisRS: 3.727%; Pks13 thioesterase: 1.544%; CoaBC: -3.418%; Leishmania in macrophages: -6.94%; PfKRS1: 2.172%; MtTrpRS: 1.22%
* Cc1cc(N(C)C)nc(C2CCNC2)n1 (stereo unspecified) : TcHisRS: 7.143%; CoaBC: 10.96%; PfKRS1: -4.592%; MtTrpRS: 28.49%
* CN(Cc1ccccc1)C1(C(=O)NCC(N)=O)Cc2ccccc2C1 : TcHisRS: 6.557%; Pks13 thioesterase: 4.58%; CoaBC: -1.089%; Leishmania in macrophages: -39.01%; PfKRS1: -5.601%; MtTrpRS: 17.77%
* c1ccc(N2CCCC3(COCCN(c4nccs4)C3)C2)nc1 (stereo unspecified) : TcHisRS: 18.18%; CoaBC: 23.01% & 14.81%; PfKRS1: -0.9261%; MtTrpRS: 4.523%
* O=C(c1cscn1)N1CCc2ncc(Cn3cncn3)n2CC1 : TcHisRS: 2.941%; CoaBC: 1.5%; Leishmania in macrophages: 17.52%; PfKRS1: -3.471%; MtTrpRS: -5.786%
* CN(C)CC(=O)N1CCC2(CC1)CN(Cc1ccccc1)C2 : TcHisRS: 4.854%; Pks13 thioesterase: -42.03%; CoaBC: 5.277%; Leishmania in macrophages: 10.26%; PfKRS1: -0.9427%; MtTrpRS: 18.46%
* Cn1cc(CN2CCc3onc(C(=O)N4CCCC4)c3C2)cn1.O=C(O)C(F)(F)F : Leishmania in macrophages: 14.91%
* CCOCC(=O)N1CCc2c(ncnc2N2CCOCC2)C1 : TcHisRS: 5.291%; Pks13 thioesterase: -14.89%; CoaBC: 2.17%; Leishmania in macrophages: 17.97%; PfKRS1: 3.576%; MtTrpRS: 3.601%
* CNC(=O)c1n[nH]c2c1C(c1cccc3nsnc13)CC(=O)N2 (stereo unspecified) : TcHisRS: 3.933%; Pks13 thioesterase: -29.71%; CoaBC: 5.835%; Leishmania in macrophages: 9.969%; PfKRS1: 4.37%; MtTrpRS: -3.445%
* Cc1cc(-c2ccc(=O)n(CCNC(=O)C3CCCCC3)n2)c(C)o1 : TcHisRS: 4.857%; Pks13 thioesterase: -9.18%; CoaBC: 1.37%; Leishmania in macrophages: -8.814%; PfKRS1: 0.9659%; MtTrpRS: -9.302%
* Cc1cnc(CNc2c(F)cccc2-n2cccn2)o1 : TcHisRS: 5.691%; Pks13 thioesterase: -4.123%; CoaBC: -0.8439%; Leishmania in macrophages: 7.824%; PfKRS1: 0.2462%; MtTrpRS: 8.531%
* Cc1ccnn1CCC(=O)N1C[C@@H](O)[C@H](Oc2cccc(F)c2)C1 : TcHisRS: 4.478%; CoaBC: 4.136%; Leishmania in macrophages: 8.232% & 17.47%; PfKRS1: -0.06912%; MtTrpRS: 2.725%
* COc1c(CNC2CCc3ccccc32)c(C(C)C)nn1C (stereo unspecified) : TcHisRS: 2.339%; Pks13 thioesterase: -16.04%; CoaBC: 6.122%; Leishmania in macrophages: 25.9%; PfKRS1: 3.519%; MtTrpRS: -5.254%
* CNC(=O)CCNC(=O)c1cc(Br)c2c(c1)OCCO2 : TcHisRS: 9.195%; CoaBC: -2.091%; Leishmania in macrophages: 31.49%; PfKRS1: 5.732%; MtTrpRS: -2.484%
* CCOc1ccc(C(=O)n2cccn2)cc1 : TcHisRS: 0.5181%; Pks13 thioesterase: -8.806%; CoaBC: 2.581%; Leishmania in macrophages: -12.74%; PfKRS1: 3.072%; MtTrpRS: 2.083%
* O=C(O)C(F)(F)F.O=C(O)C(F)(F)F.O=c1ccc2c(n1Cc1cccnc1)CCN(C1CCOC1)CC2 (stereo unspecified) : Leishmania in macrophages: 4.4%
* CCSCCC(=O)NCc1cc2n(n1)CCN(C(=O)N(C)C)C2 : TcHisRS: 1.98%; Pks13 thioesterase: 16.38%; CoaBC: -2.773%; Leishmania in macrophages: -34.59%; PfKRS1: 4.843%; MtTrpRS: -6.988%
* O=C(c1ccc2c(c1)CCCC2)N1CCN(c2cnccn2)CC1 : TcHisRS: 9.677%; Pks13 thioesterase: -14.26%; CoaBC: 6.842%; Leishmania in macrophages: -7.667%; PfKRS1: 0.4752%; MtTrpRS: -1.471%
* O=C(O)C(F)(F)F.O=C(O)C(F)(F)F.O=C(O)C(F)(F)F.[H][C@@]12CN(Cc3ccoc3)CCO[C@]1([H])CN(Cc1cccc(C)n1)C2 : Leishmania in macrophages: 3.638%

Once more, the final 3:

* CCSCCC(=O)NCc1cc2n(n1)CCN(C(=O)N(C)C)C2 : TcHisRS: 1.98%; Pks13 thioesterase: 16.38%; CoaBC: -2.773%; Leishmania in macrophages: -34.59%; PfKRS1: 4.843%; MtTrpRS: -6.988%
* O=C(c1ccc2c(c1)CCCC2)N1CCN(c2cnccn2)CC1 : TcHisRS: 9.677%; Pks13 thioesterase: -14.26%; CoaBC: 6.842%; Leishmania in macrophages: -7.667%; PfKRS1: 0.4752%; MtTrpRS: -1.471%
* O=C(O)C(F)(F)F.O=C(O)C(F)(F)F.O=C(O)C(F)(F)F.[H][C@@]12CN(Cc3ccoc3)CCO[C@]1([H])CN(Cc1cccc(C)n1)C2 : Leishmania in macrophages: 3.638%